Test results reported in patent US20220347180A1, “ENHANCING CANCER THERAPY TREATMENT WITH BH3 MIMETICS” (THE REGENTS OF THE UNIVERSITY OF COLORADO, A BODY CORPORATE, priority 2019, published 2022).
At least one compound was matched to its structure with a doubt left.

Tested on: human melanoma lines
Test: ATP viability assay, panel of melanoma lines
Type: cell-based
Conditions: single drug, up to 2.5 uM, 48 h
Description: Cells were treated for 48 h for viability assays and primary sphere assays.
ATP viability assay, primary and secondary sphere assays: Cell viability was evaluated via Cell Titer-Glo Luminescent cell viability assay (Promega Corp., Madison, Wis.) according to the manufacturer's protocol. All sphere assays were completed as previously described. The experimental schematic for the primary and secondary sphere assays was described previously. All assays were performed in no less than triplicate for each cell line and repeated at least three times for each line. Drug treatments began 120 h after seeding in the primary sphere assay and 24 h after seeding for the monolayer ATP assay.
Calculation of IC50 and Combination index (CI) values: IC50 values were calculated from the relative viability results of ATP assays, and were derived by a sigmoidal dose (log)-response (variable slope) curve with GraphPad Prism 8 software. […] This method uses a median-effect equation and Combination-index theorem to calculate synergy between two drugs and identifies the drug interaction as values […]. This is defined as combination-index values (CI values). The program requires entering a series of “dose (D) and effect (fa)” into the program for each drug alone as well as the combination therapy.

CC1(C)CCC(CN2CCN(c3ccc(C(=O)NS(=O)(=O)c4ccc(NCC5CCOCC5)c([N+](=O)[O-])c4)c(Oc4cnc5[nH]ccc5c4)c3)CC2)=C(c2ccc(Cl)cc2)C1 [ABT-199, venetoclax]
effect on cell viability: little effect on cell viability
